Data as given in PubChem BioAssay AID1948 (National Center for Advancing Translational Sciences (NCATS), 2009).
Among all 110,000 compounds or so, about 20 (0.02%) were called active. Not shown: some 2% with an inconclusive outcome. Only a part is listed here, and it is no random draw. Entries without a call were filed so in the source.

Experiment: qHTS Assay for Compounds that Induce Erasure of Genomic Imprints;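 note: 0% = negative control wells on the plate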
Settings: mouse ES Peg3-LacZ reporter, beta-gal luminescence, 40 h; at 60.7 µM (top of the series; calls come from the whole dose curve)
From the text: qHTS Assay for Compounds that Induce Erasure of Genomic Imprints NIH Chemical Genomics Center [NCGC] NIH Molecular Libraries Screening Centers Network [MLSCN] Assay Submitter (PI): JEFFRIES, SEAN, NCGC, University of Cambridge NCGC Peg3 Imprinting Assay Overview Genomic imprinting is the epigenetic process whereby genes are expressed in a parent of origin fashion. […] Unlike some forms of epigenetic silencing that can be overcome by overexpression of transcription factors, genomic imprinting stably represses the expression of one allele despite potentially high levels of expression from the other allele. […] During mouse embryonic day 11.5 imprints are erased in PGCs so that sex specific imprints can be reestablished during gametogenesis. Embryonic germ (EG) cells can be derived from developing PGCs at embryonic day 11.5 and these cells often lack genomic imprints. […] The assay uses a luminescence based read out for LacZ activity and is a homogenous assay optimal for HTS.
NCGC Peg3 Imprinting Assay Protocol Summary ES cell lines were derived from blastocysts taken from Peg3LacZ-Neo x129 matings. […] A single luminescence read was taken at the end of the assay and the data was normalized by plate to internal negative controls. Maximum efficacy and AC50 values were calculated from dose-response data using the standard Hill equation. […] (4)Read luminescence on the ViewLux plate reader. […]

SMILES	activity change, positive = activation
CCCCCCCCCc1ccc(O)cc1	41.1%
N#C/C(=C\c1cccc(O)c1)C(=O)O	32.1%
